Assay results published in article doi:10.1101/2021.10.26.465893.
Results are given in words; binding and its absence hold for the method and conditions named. Binding seen in cells or lysates may run through a third protein. A yes stands for co-enrichment or nearness to the bait. Other partners may have been found.

Amino acid sequences for entries named in this document (tags omitted).
UniProt Q14653: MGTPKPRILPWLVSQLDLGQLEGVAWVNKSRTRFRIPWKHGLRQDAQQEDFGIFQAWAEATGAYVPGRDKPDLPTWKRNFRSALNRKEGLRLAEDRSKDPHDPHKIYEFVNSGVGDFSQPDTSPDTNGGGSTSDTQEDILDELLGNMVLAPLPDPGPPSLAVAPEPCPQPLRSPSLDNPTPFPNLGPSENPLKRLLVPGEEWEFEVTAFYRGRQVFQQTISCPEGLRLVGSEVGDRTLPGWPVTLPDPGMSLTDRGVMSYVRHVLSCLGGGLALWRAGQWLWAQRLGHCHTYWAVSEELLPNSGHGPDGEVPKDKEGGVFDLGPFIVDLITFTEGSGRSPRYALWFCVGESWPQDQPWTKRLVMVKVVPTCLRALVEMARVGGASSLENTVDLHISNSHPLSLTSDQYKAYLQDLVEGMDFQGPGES

Target: IRF3 expressed from pCMV-Tag2B-Flag-IRF3 (human) (UniProt Q14653)
Experiment: affinity purification with mass spectrometry

B1: DDX18 (endogenous, found in the IRF3 nuclear screen) (protein, UniProt Q9NVP1 1-670)
chain: MSHLPMKLLRKKIEKRNLKLRQRNLKFQGASNLTLSETQNGDVSEETMGSRKVKKSKQKPMNVGLSETQNGGMSQEAVGNIKVTKSPQKSTVLTNGEAAMQSSNSESKKKKKKKRKMVNDAEPDTKKAKTENKGKSEEESAETTKETENNVEKPDNDEDESEVPSLPLGLTGAFEDTSFASLCNLVNENTLKAIKEMGFTNMTEIQHKSIRPLLEGRDLLAAAKTGSGKTLAFLIPAVELIVKLRFMPRNGTGVLILSPTRELAMQTFGVLKELMTHHVHTYGLIMGGSNRSAEAQKLGNGINIIVATPGRLLDHMQNTPGFMYKNLQCLVIDEADRILDVGFEEELKQIIKLLPTRRQTMLFSATQTRKVEDLARISLKKEPLYVGVDDDKANATVDGLEQGYVVCPSEKRFLLLFTFLKKNRKKKLMVFFSSCMSVKYHYELLNYIDLPVLAIHGKQKQNKRTTTFFQFCNADSGTLLCTDVAARGLDIPEVDWIVQYDPPDDPKEYIHRVGRTARGLNGRGHALLILRPEELGFLRYLKQSKVPLSEFDFSWSKISDIQSQLEKLIEKNYFLHKSAQEAYKSYIRAYDSHSLKQIFNVNNLNLPQVALSFGFKVPPFVDLNVNSNEGKQKKRGGGGGFGYQKTKKVEKSKIFKHISKKSSDSRQFSH
**Q.** With B1 as the binder, how does the binding read?
**A.** binds
